Article PMC7851739
Results are given in words; binding and its absence hold for the method and conditions named. In cells and extracts the contact can be indirect. Some binding calls cover weakened binding; strength is not graded here.

Target: T1, apoptosis-associated speck-like protein containing a CARD (ASC) (mouse (endogenous in BMDMs)) (UniProt Q9EPB4)
T1 sequence: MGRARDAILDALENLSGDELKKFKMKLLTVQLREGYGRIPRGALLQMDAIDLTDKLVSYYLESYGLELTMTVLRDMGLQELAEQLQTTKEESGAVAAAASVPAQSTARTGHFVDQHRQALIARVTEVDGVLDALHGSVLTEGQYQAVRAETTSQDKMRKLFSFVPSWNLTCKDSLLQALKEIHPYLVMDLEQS
Assay: co-IP; BMDM lysates incubated with anti-ASC antibody and Protein A/G plus agarose overnight at 4°C, immunoblotting; IgG isotype control; cells treated with LPS (300 ng/ml, 3 h) and ATP (5 mM, 1 h), with or without pretreatment with koumine (KM, 200 μM, 1 h)

B1: pro-caspase-1 (protein, UniProt P29452 1-402)
chain: MADKILRAKRKQFINSVSIGTINGLLDELLEKRVLNQEEMDKIKLANITAMDKARDLCDHVSKKGPQASQIFITYICNEDCYLAGILELQSAPSAETFVATEDSKGGHPSSSETKEEQNKEDGTFPGLTGTLKFCPLEKAQKLWKENPSEIYPIMNTTTRTRLALIICNTEFQHLSPRVGAQVDLREMKLLLEDLGYTVKVKENLTALEMVKEVKEFAACPEHKTSDSTFLVFMSHGIQEGICGTTYSNEVSDILKVDTIFQMMNTLKCPSLKDKPKVIIIQACRGEKQGVVLLKDSVRDSEEDFLTDAIFEDDGIKKAHIEKDFIAFCSSTPDNVSWRHPVRGSLFIESLIKHMKEYAWSCDLEDIFRKVRFSFEQPEFRLQMPTADRVTLTKRFYLFPGH
B1 was tested, and the binding was “binds”.
